Measured values reported in patent US20020164702A1.
No constants are given. Whether binding was seen depends on the method and setting. Some results given as binding are weak or reduced against the parent protein; the word gives no strength. Sequences can lack the tags named with a protein.

By UniProt entry, the sequences of proteins in these tests, tags left out. Where a name states a change or a piece, a line headed by the entry shows the natural chain unless it says otherwise. Chains listed by the source or under a name are the forms on record and can include a tag or linker.
c-agrin4,0 (P25304, form named): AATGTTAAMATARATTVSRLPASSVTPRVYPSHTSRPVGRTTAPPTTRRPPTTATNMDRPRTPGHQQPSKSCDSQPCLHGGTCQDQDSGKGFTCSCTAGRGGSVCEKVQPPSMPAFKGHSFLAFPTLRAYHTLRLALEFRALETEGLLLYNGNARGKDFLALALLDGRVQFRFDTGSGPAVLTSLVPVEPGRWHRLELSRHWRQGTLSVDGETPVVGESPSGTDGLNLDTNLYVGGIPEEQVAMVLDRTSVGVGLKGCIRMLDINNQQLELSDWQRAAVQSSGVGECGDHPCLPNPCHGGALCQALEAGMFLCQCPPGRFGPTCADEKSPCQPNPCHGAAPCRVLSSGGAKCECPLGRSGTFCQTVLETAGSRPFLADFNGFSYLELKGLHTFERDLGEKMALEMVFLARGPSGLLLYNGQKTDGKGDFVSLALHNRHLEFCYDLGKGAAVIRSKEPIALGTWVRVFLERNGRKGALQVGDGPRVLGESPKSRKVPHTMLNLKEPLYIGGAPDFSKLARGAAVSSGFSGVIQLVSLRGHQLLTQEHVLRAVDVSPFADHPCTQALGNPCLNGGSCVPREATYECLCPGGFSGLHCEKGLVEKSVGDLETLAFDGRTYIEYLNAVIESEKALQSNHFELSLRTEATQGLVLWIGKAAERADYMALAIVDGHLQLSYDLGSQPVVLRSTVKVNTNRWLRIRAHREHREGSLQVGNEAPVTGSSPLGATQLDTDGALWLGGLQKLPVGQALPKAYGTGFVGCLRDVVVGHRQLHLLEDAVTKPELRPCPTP

Biological target: c-agrin4,0 (UniProt P25304)
Assay: MuSK-Fc bound to the surface of differentiated C2C12 myotubes with agrin conditioned medium (10 nM), detected with radio-iodinated anti-human IgG; complex forms only on myotubes (myotube-specific accessory component), not on fibroblasts or myoblasts

B1: MuSK-Fc (ectodomain of rat MuSK fused to the Fc portion of human immunoglobulin G1) (Fc fusion, not shown: small tags and cut ends)
chain: GTEKLPKAPVITTPLETVDALVEEVATFMCAVESYPQPEISWTRNKILIKLFDTRYSIRENGQLLTILSVEDSDDGIYCCTANNGVGGAVESCGALQVKMKPKITRPPINVKIIEGLKAVLPCTTMGNPKPSVSWIKGDSALRENSRIAVLESGSLRIHNVQKEDAGQYRCVAKNSLGTAYSKLVKLEVEVFARILRAPESHNVTFGSFVTLRCTAIGMPVPTISWIENGNAVSSGSIQENVKDRVIDSRLQLFITKPGLYTCIATNKHGEKFSTAKAAATVSIAEWSKSQKESKGYCAQYRGEVCDAVLVKDSLVFFNTSYPDPEEAQELLIHTAWNELKAVSPLCRPAAEALLCNHLFQECSPGVLPTPMPICREYCLAVKELFCAKEWLAMEGKTHRGLYRSGMHFLPVPECSKLPSMHQDPTACTRLPYLDYKKENITTFPSITSSKPSVDIPNLPASTSSFAVSPAYSGPG
With B1 the binding was “binds”.
